PubChem BioAssay AID1508588, Peter MacCallum Cancer Centre, 2020
In all, the deposit lists about 18,000 reagents; shown is a random part of them. 790 of all reagents (4.4%) count as active. 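Calls rest on a combination of fold-change classes in drug and vehicle arms, not all shown here.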

Screen: 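Genome-wide search for knock-downs that heighten vemurafenib action in melanoma cells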 (primary screen)
System: human WM266.4 melanoma cells (BRAF V600 mutant)
Reagent: siRNA pool against human genes, 40 nM
Time to read-out: 96 h from transfection to read-out
Treatment: vemurafenib 300 nM (about IC25), added 48 h after transfection, for 48 h; comparison arm got DMSO vehicle only
Measured: 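Cell gain (DAPI nuclei at end minus before drug, mean of two replicates) and medium lactate by absorbance per cell, both as ratio to non-targeting siRNA, also grouped into fold-change classes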
Reading the numbers: cell gain with vemurafenib: higher = more cell gain than with non-targeting siRNA; lactate per cell with vemurafenib: higher = more lactate made per cell
Active means: 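a knock-down counts as enhancing when its fold-change classes with vehicle and with vemurafenib, taken together, show a stronger drug effect on cell gain or lactate per cell; exact class pairs not stated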
Meaning of the calls: active = enhances vemurafenib effect; inactive = no enhancement seen

gene knocked down	cell gain with vemurafenib	lactate per cell with vemurafenib	activity call
TMEM192	0.67	0.42	inactive
NSFL1C	1.01	0.28	inactive
ART5	0.38	2.02	inactive
SH3RF1	0.75	1.27	inactive
PPIC	0.44	0.86	inactive
FAH	0.52	1.51	inactive
RAVER2	0.52	0.4	inactive
SCYL2	1.13	0.62	inactive
GALNS	0.42	1.95	inactive
ILF3	0.27	0.68	inactive
ADAM22	1.03	0.63	inactive
TMEM70	0.62	0.83	inactive
POLR2J3	0.3	1.34	inactive
SLC1A7	1.12	0.93	inactive

3 consecutive records from above:
gene knocked down	cell gain with vemurafenib	lactate per cell with vemurafenib	activity call
TMEM192	0.67	0.42	inactive
NSFL1C	1.01	0.28	inactive
ART5	0.38	2.02	inactive

Next records follow.
gene knocked down	cell gain with vemurafenib	lactate per cell with vemurafenib	activity call
APOBEC3B	0.55	1.36	inactive
MICAL1	1.19	1.06	inactive
SERP2	0.29	0.9	inactive
CDC6	0.58	1.62	inactive
ULBP1	0.22	0.4	inactive
BPIFA1	0.27	2.23	inactive
PKD1L3	0.08	1.13	inactive
EIF4E2	0.06	1.19	inactive
RBMY1B	1.12	0.62	inactive
SF3B1	0.02	1.96	inactive
ACTR1B	1.15	1.16	inactive
DOCK10	0.44	0.59	inactive
MYH3	0.73	0.47	inactive
PLS1	0.84	0.72	inactive
ZFYVE16	0.04	1.6	inactive
OR1D4	0.2	2.3	inactive
TMEM65	0.76	1.04	inactive
OR13C8	0.06	1.49	inactive
CASP2	0.99	0.57	inactive
PRKCA	0.28	0.76	inactive
